The other results are listed elsewhere or left out.

The target of the assay is T1, OsSMF1 (Oryza sativa, UniProt Q6ZLB0 1-436).
T1 sequence: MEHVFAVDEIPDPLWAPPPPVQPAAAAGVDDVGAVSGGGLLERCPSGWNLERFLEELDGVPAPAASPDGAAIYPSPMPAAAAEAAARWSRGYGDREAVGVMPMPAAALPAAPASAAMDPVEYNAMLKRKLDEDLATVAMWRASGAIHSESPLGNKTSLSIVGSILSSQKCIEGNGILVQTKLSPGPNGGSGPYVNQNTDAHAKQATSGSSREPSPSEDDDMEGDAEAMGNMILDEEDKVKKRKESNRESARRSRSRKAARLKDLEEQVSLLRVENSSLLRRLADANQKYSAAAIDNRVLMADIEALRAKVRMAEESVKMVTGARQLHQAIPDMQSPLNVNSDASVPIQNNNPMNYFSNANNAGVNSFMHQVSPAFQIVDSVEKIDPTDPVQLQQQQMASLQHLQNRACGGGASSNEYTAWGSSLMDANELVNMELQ
Nature of the assay: protein-binding microarray (RPBM); PBS, 2% BSA, 51.3 ng/ul salmon testes DNA, 50 uM zinc acetate, 200 nM TF, 25 C, 1 h; high values mean tight binding. As to conditions: protein: recombinant; tags: N-terminal polyhistidine and DsRed monomer fusion (pET32a); chain copies: 2; label: CyDye5-dUTP incorporated in the synthesized complementary strand; 3' TTTTT single-stranded linker to array surface; dsDNA, one strand shown. In outline:
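Binding signal is reported as fluorescence intensity per feature (arbitrary units) from an Axon 4000B scanner. Incubation used 200 nM of each Ni–NTA-purified, N-terminally polyhistidine- and DsRed-fused transcription factor from E. coli BL21-CodonPlus on a double-stranded custom Agilent array for 1 h at 25 °C, with 50 µM zinc acetate in the buffer, followed by washing.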
As for “GGGATTAAAGATGGCTCAGCCGGTCACGTGGCTGAGCCATCGGAGTCACCTAGTGCAG”, the binding signal is 3780 fluorescence intensity (a.u.).

On to “TCCAAATAGAGTTTAATAATTTGTTTCCTATACTTCCTACCGGAGTCACCTAGTGCAG”, for which the binding signal is 28800 fluorescence intensity (a.u.).

Take “AGCTTAGCTTAGCTTAGCTTGCTTACGTCCACACTACTTTCGGAGTCACCTAGTGCAG”: the binding signal was 3320 fluorescence intensity (a.u.).

In the case of “TGAAGGAAGTAAAAGAAGTTGTAGTGGTGTGTGATCCAGACGGAGTCACCTAGTGCAG”, the binding signal was 3220 fluorescence intensity (a.u.).

With “GCCGACTTGCGCGCCGCCTTGGTCGCCAGCTGTTTCCTCGCGGAGTCACCTAGTGCAG”, the binding signal is 3520 fluorescence intensity (a.u.).

Turning to “ATCGGCAAACGCGTTCCACCAAAACCCTCCACGTCAGCATCGGAGTCACCTAGTGCAG”, the binding signal is 29800 fluorescence intensity (a.u.).

In the case of “CACGATGATGATGTAGGTGTATCTGCCTGCCCCTCGTCGCCGGAGTCACCTAGTGCAG”, the binding signal is 3450 fluorescence intensity (a.u.).

Regarding “CCTACACATATATATATATATATGCATGGCAACTTGGCAACGGAGTCACCTAGTGCAG”, the binding signal was 3340 fluorescence intensity (a.u.).

In the case of “CAAACCCTAGCTCATATGGTTGTAGTCTTAGCTACTATCACGGAGTCACCTAGTGCAG”, the binding signal was 50500 fluorescence intensity (a.u.).

As to “CCCCTTCATGCCAGCACGCTCCCCACATCCACCCACCACCCGGAGTCACCTAGTGCAG”, the binding signal was 3320 fluorescence intensity (a.u.).

As to “CTGTTTGATTCTTCAGTGGTATGATGTGTAGATGTAGTCCCGGAGTCACCTAGTGCAG”, the binding signal is 4580 fluorescence intensity (a.u.).

As for “GGATTTAACACTAGAGACCCTAATTTTGCTGCTCAGGCGACGGAGTCACCTAGTGCAG”, the binding signal was 28500 fluorescence intensity (a.u.).

As to “ATTCGCCCAAACGCCACTCTTAACACGTGGGTATTCGCTGCGGAGTCACCTAGTGCAG”, the binding signal was 3790 fluorescence intensity (a.u.).

As for “TGATCCTAAGAATTGCCATAGATTACGTGAGTTGCATCACCGGAGTCACCTAGTGCAG”, the binding signal was 3520 fluorescence intensity (a.u.).

As for “ACAAATGGATTAATGACTGTTTGACTCGCTTGCTCACTAGCGGAGTCACCTAGTGCAG”, the binding signal was 3410 fluorescence intensity (a.u.).

“GCGGTGTCTCATCGTCCTCGCCGCCGCCTCGTCAGTCGTCCGGAGTCACCTAGTGCAG”: the binding signal was 3970 fluorescence intensity (a.u.).

Regarding “CGATCGATGGGGATGTGGGGTGTGTTAGTTCCTTCGTCTTCGGAGTCACCTAGTGCAG”, the binding signal is 3150 fluorescence intensity (a.u.).

For “GGACCGGAACGCCGTGACGTGCAACGCCATGCTCGCCGGGCGGAGTCACCTAGTGCAG”, the binding signal was 5860 fluorescence intensity (a.u.).

For “TTCCCACCCGCCGGCCGGCTTGCCCTGAGAGGAGAAAATGCGGAGTCACCTAGTGCAG”, the binding signal is 3250 fluorescence intensity (a.u.).

In the case of “TGGGATATTGGTAGGCTGGTAGCTACTCCGTAGATTTGACCGGAGTCACCTAGTGCAG”, the binding signal is 29100 fluorescence intensity (a.u.).

As to “GCATATGAAGGTGAAATGCTGAGCATACGTTTGCTATTTTCGGAGTCACCTAGTGCAG”, the binding signal is 4370 fluorescence intensity (a.u.).

Regarding “AAGTTATAACCCACTACATACAAAGATACCACGTCATCATCGGAGTCACCTAGTGCAG”, the binding signal was 15900 fluorescence intensity (a.u.).

For the sequence “AGTGAGTGGTGGAGGGTTGTGATTGGATGAGTAGTGAAGGCGGAGTCACCTAGTGCAG”, the binding signal was 4240 fluorescence intensity (a.u.).

Consider “CTCCACCATTGCCCATCTCCACGCTGCAGTGCTTGCTCCCCGGAGTCACCTAGTGCAG”, for which the binding signal is 3360 fluorescence intensity (a.u.).

For “TTCGTGGCGGCTCCTCCTGTGCCATGGCCGCCGATGGTGACGGAGTCACCTAGTGCAG”, the binding signal was 3320 fluorescence intensity (a.u.).

As to “ATATTTGATTAGATCGGTAATGGATGGCTATAACGTATGCCGGAGTCACCTAGTGCAG”, the binding signal was 21600 fluorescence intensity (a.u.).

As for “GAAGGAAGGACTAACGCCTGGACACGTCACTACCTCACCCCGGAGTCACCTAGTGCAG”, the binding signal was 19800 fluorescence intensity (a.u.).

As to “ACATTATGCACTACCCTCGTGACACTGACATACATAATCTCGGAGTCACCTAGTGCAG”, the binding signal is 4010 fluorescence intensity (a.u.).

For the sequence “GGCTACACATGTGGATGAGGACGTGGCACCGAATATGCCGCGGAGTCACCTAGTGCAG”, the binding signal is 15700 fluorescence intensity (a.u.).

For “ACGGAGGGTGTAATAATCAATCAATCCTATGTTAATTGTTCGGAGTCACCTAGTGCAG”, the binding signal was 3480 fluorescence intensity (a.u.).

Regarding “GCGTGAGGATCAGTGAGCTGTGCGGCTCTCTTTTCTTGTTCGGAGTCACCTAGTGCAG”, the binding signal is 3300 fluorescence intensity (a.u.).

For “TCTCCGCCGACCTCGTCGTCGTCGGCGTCCTCATCCAGGCCGGAGTCACCTAGTGCAG”, the binding signal is 3710 fluorescence intensity (a.u.).

Take “TTCCAGCTCCCCGCCGACTGCAACGTCGACGGCATCCGCGCGGAGTCACCTAGTGCAG”: the binding signal is 4070 fluorescence intensity (a.u.).

With “CCACATGTCAGGATGCCACGTCATCTCTCTTTCCCCTCTTCGGAGTCACCTAGTGCAG”, the binding signal was 33600 fluorescence intensity (a.u.).

For the sequence “TTTTCGCCGCCAGCGCAGATGCTTCATCTTCATTGGCCTTCGGAGTCACCTAGTGCAG”, the binding signal was 3200 fluorescence intensity (a.u.).

As for “ATTGTGATGAACAGCAAGTTAAAGGTTGGGCATTATAGTGCGGAGTCACCTAGTGCAG”, the binding signal was 20200 fluorescence intensity (a.u.).

On to “TGGTACGTGGGCAGCGCCTCCTCCGTCACCATGTTCCCTACGGAGTCACCTAGTGCAG”, for which the binding signal is 4880 fluorescence intensity (a.u.).

Consider “TTATGTGTCTATGATACGTGGACGCAGTGGTAAATCCTTTCGGAGTCACCTAGTGCAG”, for which the binding signal was 4700 fluorescence intensity (a.u.).

For the sequence “TGGGCCTTATCGGCCGTGACGGCCCATTACAACTCAGCGCCGGAGTCACCTAGTGCAG”, the binding signal was 3600 fluorescence intensity (a.u.).

As for “TTATATCGTTTTAATTTCAATTAAACTTTCAATTTTAGTGCGGAGTCACCTAGTGCAG”, the binding signal is 48400 fluorescence intensity (a.u.).

Consider “AACCAGATTTAAGAGTAAATTACATCAGCGGTACACAAACCGGAGTCACCTAGTGCAG”, for which the binding signal is 3390 fluorescence intensity (a.u.).

In the case of “ATGATCGTGCGGTTGATCCATCGCCGCGCGGTTCACGCGCCGGAGTCACCTAGTGCAG”, the binding signal is 3990 fluorescence intensity (a.u.).

Values taken from article PMC7819943, “Rice protein-binding microarrays: a tool to detect cis-acting elements near promoter regions in rice”.
